Patent US9073929B2, “Aldosterone synthase inhibitors” (ElexoPharm GmbH, priority 2011, dated 2015)
Some results were stated once for a whole list of compounds, not compound by compound.

Target: T1, human CYP11B2 (Homo sapiens, UniProt P19099)
T1 construct: expressed in transfected cells; host or cells: V79 cells (clone V79-hCYP11B2-CLE9)
T1 sequence (P19099 25-503): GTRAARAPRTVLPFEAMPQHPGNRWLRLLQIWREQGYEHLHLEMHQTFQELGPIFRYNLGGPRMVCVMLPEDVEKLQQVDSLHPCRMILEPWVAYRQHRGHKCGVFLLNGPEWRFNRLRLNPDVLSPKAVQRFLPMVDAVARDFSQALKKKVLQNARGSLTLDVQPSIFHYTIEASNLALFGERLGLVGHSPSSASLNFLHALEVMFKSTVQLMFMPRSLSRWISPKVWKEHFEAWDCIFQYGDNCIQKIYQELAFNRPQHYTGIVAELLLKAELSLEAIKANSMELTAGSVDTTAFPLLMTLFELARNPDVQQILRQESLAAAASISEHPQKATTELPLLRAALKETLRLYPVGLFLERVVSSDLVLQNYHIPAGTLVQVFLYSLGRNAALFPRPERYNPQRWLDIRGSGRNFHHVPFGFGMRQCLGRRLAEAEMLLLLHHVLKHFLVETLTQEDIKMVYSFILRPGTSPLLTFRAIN
Assay: V79-Human-CYP11B2 cell assay (aldosterone HTRF)
Assay type: cell-based
Conditions: V79-hCYP11B2 cells, 125 nM 11-deoxycorticosterone, 3 hours
Method: Methods for V79-Human-CYP11B2 and V79-Human-CYP11B1 Assays:
V79 cell lines stably expressing the either the human CYP11B2 or the human CYP11B1 enzyme were generated using a standard transfection protocol. V79 cells were transfected with plasmids pTriEx3-Hygro-hCyp11B2 or pTriEx3-Hygro-hCyp11B1 using Lipofectamine2000 reagent. V79 cells that stably express the human CYP11B2 or human CYP11B1 enzyme were selected for and maintained in DMEM supplemented with 10% FBS and 400 μg/mL hygromycin for ˜2 weeks. Single cell clones were generated by infinite dilution in DMEM supplemented with 10% FBS and 400 μg/mL hygromycin until single colonies were obtained. Clones V79-hCYP11B2-CLE9 and V79-hCYP11B1-8C7, were determined to produce the most aldosterone and cortisol, respectively, and were selected for inhibitor screening. For testing of inhibitors, cells were harvested at 80% confluency with 0.5% Trypsan-EDTA, washed once in PBS, and reconstituted in DMEM+0.1% BSA media at a cell concentration of 400,000 cells/mL. 25 μl of cells were added to a 384 well tissue culture treated plate and mixed with 0.25 μl of inhibitor or DMSO (1% final DMSO concentration) for 1 hour at 37° C., 5% CO2. After pre-incubation with inhibitor, the reaction was initiated by adding 5 μl of substrate (final concentration of 125 nM 11-deoxycorticosterone for the CYP11B2 assay or 250 nM 11-deoxycortisol for the CYP11B1 assay). The reaction was carried out for 3 hours at 37° C., 5% CO2 and was stopped by harvesting the supernatants. The amount of product in the supernatant (aldosterone for CYP11B2 assay and cortisol for the CYP11B1 assay) was measured using HTRF-based assay kit (Aldosterone HTRF-CisBio#64ALDPEB, Cortisol HTRF-CisBio #631DC002-CORT). IC50's for the inhibitor were determined by plotting the amount of product formed against the concentration of inhibitor using sigmoidal dose-response curve (variable slope) fit in GraphPad.

Cc1c(C#N)cncc1-c1cc(F)c2c(c1)CCc1nnc(C)n1-2 [Example 30, 5-(9-fluoro-1-methyl-4,5-dihydro-[1,2,4]triazolo[4,3a]quinolin-7-yl)-4-methylnicotinonitrile]
IC50: < 10 µM

Cc1nnc2n1-c1c(F)cc(-c3cncc([C@](C)(O)C(F)(F)F)c3)cc1CC2 [Example 31, (S)-1,1,1-trifluoro-2-(5-(9-fluoro-1-methyl-4,5-dihydro-[1,2,4]triazolo[4,3-a]quinolin-7-yl)pyridin-3-yl)propan-2-ol]
IC50: < 10 µM

Cc1nnc2n1-c1c(Cl)cc(-c3cncc(F)c3)cc1CC2 [Example 32, 9-chloro-7-(5-fluoropyridin-3-yl)-1-methyl-4,5-dihydro-[1,2,4]triazolo[4,3-a]quinoline]
IC50: < 10 µM

Cc1nnc2n1-c1c(Cl)cc(-c3cncc(C(C)(C)O)c3)cc1CC2 [Example 33, 2-(5-(9-chloro-1-methyl-4,5,- dihydro-[1,2,4]triazolo[4,3-a]quinolin-7-yl)pyridin-3-yl)propan-2-ol]
IC50: < 10 µM

Cc1nnc2n1-c1c(Cl)cc(-c3cncc(N4CCC4)n3)cc1CC2 [Example 34, 7-(6-(azetidin-1-yl)pyrazin-2-yl)-9-chloro-1-methyl-4,5-dihydro-[1,2,4]triazolo[4,3-a]quinoline]
IC50: < 10 µM

Cc1nnc2n1-c1c(Cl)cc(-c3cncc(C(O)C(F)(F)F)c3)cc1CC2 (centres unmarked) [Example 35, 1-(5-(9-chloro-1-methyl-4,5-dihydro-[1,2,4]triazolo[4,3-a]quinolin-7-yl)pyridin-3-yl)-2,2,2-trifluoroethanol]
IC50: < 10 µM

CCCc1c(F)cncc1-c1cc(Cl)c2c(c1)CCc1nnc(C)n1-2 [Example 39, 9-chloro-7-(5-fluoro-4-propylpyridin-3-yl)-1-methyl-4,5-dihydro-[1,2,4]triazolo [4,3-a]quinoline]
IC50: < 10 µM

Cc1nnc2n1-c1c(Cl)cc(-c3cncc(F)c3CC(F)(F)F)cc1CC2 [Example 40, 9-chloro-7-(5-fluoro-4-(2,2,2-trifluoroethyl)pyridin-3-yl)-1-methyl-4,5-dihydro-[1,2,4]triazolo[4,3-a]quinoline]
IC50: < 10 µM

Cc1nnc2n1-c1c(Cl)cc(-c3cncc(F)c3C(C)O)cc1CC2 (centres unmarked) [Example 41, 1-(3-(9-chloro-1-methyl-4,5-dihydro-[1,2,4]triazolo[4,3-a]quinolin-7-yl)-5-fluoropyridin-4-yl)ethanol]
IC50: < 10 µM

Cc1nnc2n1-c1c(cc(-c3cncc([C@](C)(O)C(F)(F)F)c3)c(F)c1Cl)CC2 [Example 42, (S)-2-(5-(9-chloro-8-fluoro-1-methyl-4,5-dihydro-[1,2,4]trifluoro[4,3-a]quinolin-7-yl)pyridin-3-yl)-1,1,1-trifluoropropan-2-ol]
IC50: < 10 µM

Cc1nnc2n1-c1c(cc(-c3cncc([C@@](C)(O)C(F)(F)F)c3)c(F)c1Cl)CC2 [Example 43, (R)-2-(5-(9-chloro-8-fluoro-1-methyl-4,5-dihydro-[1,2,4]trifluoro[4,3-a]quinolin-7-yl)pyridin-3-yl)-1,1,1-trifluoropropan-2-ol]
IC50: < 10 µM

CCc1c(F)cncc1-c1cc(C)c2c(c1)CCc1nnc(C)n1-2 [Example 45, 7-(4-ethyl-5-fluoropyridin-3-yl)-1,9-dimethyl-4,5-dihydro-[1,2,4]triazolo[4,3-a]quinoline]
IC50: < 10 µM

Cc1nnc2n1-c1c(Cl)cc(-c3cncc(C(O)(C(C)(C)C)C(F)(F)F)c3)cc1CC2 (centres unmarked) [Example 47, 2-(5-(9-chloro-1-methyl-4,5-dihydro-[1,2,4]triazolo[4,3-a]quinolin-7-yl)pyridin-3-yl)-1,1,1-trifluoro-3,3-dimethylbutan-2-ol]
IC50: < 10 µM

CCOC(C)(C)c1cncc(-c2ccc3c(c2)CCc2nncn2-3)c1 [Example 48, 7-[5-(2-ethoxypropan-2-yl)pyridin-3-yl]-4,5-dihydro[1,2,4]triazolo[4,3-a]quinoline]
IC50: < 10 µM

COC(C)(C)c1cncc(-c2ccc3c(c2)CCc2nncn2-3)c1 [Example 49, 7-[5-(2-methoxypropan-2-yl)pyridin-3-yl]-4,5-dihydro[1,2,4]triazolo[4,3-a]quinoline]
IC50: < 10 µM

COC(C)(C)c1cncc(-c2ccc3c(c2)CCc2nnc(C)n2-3)c1 [Example 50, 7-[5-(2-methoxypropan-2-yl)pyridin-3-yl]-1-methyl-4,5-dihydro[1,2,4]triazolo[4,3-a]quinoline]
IC50: < 10 µM

COC(C)(C)c1cncc(-c2ccc3c(c2)CCc2nnc(C(F)(F)F)n2-3)c1 [Example 51, 7-[5-(2-methoxypropan-2-yl)pyridin-3-yl]-1-(trifluoromethyl)-4,5-dihydro[1,2,4]triazolo[4,3-a]quinoline]
IC50: < 10 µM

CCOC(C)(C)c1cncc(-c2ccc3c(c2)CCc2nnc(C)n2-3)c1 [Example 52, 7-[5-(2-ethoxypropan-2-yl)pyridin-3-yl]-1-methyl-4,5-dihydro[1,2,4]triazolo[4,3-a]quinoline]
IC50: < 10 µM

COC(=O)C(C)(C)c1cncc(-c2ccc3c(c2)CCc2nnc(C)n2-3)c1 [Example 53, methyl 2-methyl-2-[5-(1-methyl-4,5-dihydro[1,2,4]triazolo[4,3-a]quinolin-7-yl)pyridin-3-yl]propanoate]
IC50: < 10 µM

Cc1nnc2n1-c1ccc(-c3cncc(C(C)(C)C(=O)N(C)C)c3)cc1CC2 [Example 54, N,N,2-trimethyl-2-[5-(1-methyl-4,5-dihydro[1,2,4]triazolo[4,3-a]quinolin-7-yl)pyridin-3-yl]propanamide]
IC50: < 10 µM

CC(O)(c1cncc(-c2ccc3c(c2)CCc2nncn2-3)c1)C(F)(F)F (centres unmarked) [Example 57, 2-[5-(4,5-dihydro[1,2,4]triazolo[4,3-a]quinolin-7-yl)pyridin-3-yl]-1,1,1-trifluoropropan-2-ol]
IC50: < 10 µM

CC(O)(c1cncc(-c2ccc3c(c2)CCc2nnc(C(F)(F)F)n2-3)c1)C(F)(F)F (centres unmarked) [Example 59, 1,1,1-trifluoro-2-{5-[1-(trifluoromethyl)-4,5-dihydro [1,2,4]triazolo[4,3-a]quinolin-7-yl]pyridin-3-yl}propan-2-ol]
IC50: < 10 µM

OC(c1cncc(-c2ccc3c(c2)CCc2nncn2-3)c1)(C(F)(F)F)C(F)(F)F [Example 61, 2-[5-(4,5-dihydro[1,2,4]triazolo[4,3-a]quinolin-7-yl)pyridin-3-yl]-1,1,1,3,3,3-hexafluoropropan-2-ol]
IC50: < 10 µM

CCS(=O)(=O)C(C)(C)c1cncc(-c2ccc3c(c2)CCc2nncn2-3)c1 [Example 62, 7-{5-[2-(ethylsulfonyl)propan-2-yl]pyridin-3-yl}-4,5-dihydro[1,2,4]triazolo[4,3-a]quinoline]
IC50: < 10 µM

c1cc2c(cc1-c1cncc(C3COC3)c1)CCc1nncn1-2 [Example 63, 7-[5-(oxetan-3-yl)pyridin-3-yl]-4,5-dihydro-[1,2,4]triazolo[4,3-a]quinoline]
IC50: < 10 µM

CC(C)(COC(F)(F)F)c1cncc(-c2ccc3c(c2)CCc2nncn2-3)c1 [Example 64, 7-{5-[2-methyl-1-(trifluoromethoxy)-2-propanyl]-3-pyridinyl}-4,5-dihydro[1,2,4]triazolo[4,3-a]quinoline]
IC50: < 10 µM

CC(C)(c1cncc(-c2ccc3c(c2)CCc2nncn2-3)c1)c1nc(C2CC2)no1 [Example 65, 7-{5-[2-(3-cyclopropyl-1,2,4-oxadiazol-5-yl)propan-2-yl]pyridin-3-yl}-4,5-dihydro[1,2,4]triazolo[4,3-a]quinoline]
IC50: < 10 µM

Cc1noc(C(C)(C)c2cncc(-c3ccc4c(c3)CCc3nncn3-4)c2)n1 [Example 66, 7-{5-[2-(3-methyl-1,2,4-oxadiazol-5-yl)propan-2-yl]pyridin-3-yl}-4,5-dihydro[1,2,4]triazolo[4,3-a]quinoline]
IC50: < 10 µM

CC(C)c1noc(C(C)(C)c2cncc(-c3ccc4c(c3)CCc3nncn3-4)c2)n1 [Example 67, 7-(5-{2-[3-(propan-2-yl)-1,2,4-oxadiazol-5-yl]propan-2-yl}pyridin-3-yl)-4,5-dihydro[1,2,4]triazolo[4,3-a]quinoline]
IC50: < 10 µM
